Experimental findings from paper PMC8584161 are described below.

In one test the target is T1, Numb4 isoform of NUMB (UniProt P49757).
T1 sequence: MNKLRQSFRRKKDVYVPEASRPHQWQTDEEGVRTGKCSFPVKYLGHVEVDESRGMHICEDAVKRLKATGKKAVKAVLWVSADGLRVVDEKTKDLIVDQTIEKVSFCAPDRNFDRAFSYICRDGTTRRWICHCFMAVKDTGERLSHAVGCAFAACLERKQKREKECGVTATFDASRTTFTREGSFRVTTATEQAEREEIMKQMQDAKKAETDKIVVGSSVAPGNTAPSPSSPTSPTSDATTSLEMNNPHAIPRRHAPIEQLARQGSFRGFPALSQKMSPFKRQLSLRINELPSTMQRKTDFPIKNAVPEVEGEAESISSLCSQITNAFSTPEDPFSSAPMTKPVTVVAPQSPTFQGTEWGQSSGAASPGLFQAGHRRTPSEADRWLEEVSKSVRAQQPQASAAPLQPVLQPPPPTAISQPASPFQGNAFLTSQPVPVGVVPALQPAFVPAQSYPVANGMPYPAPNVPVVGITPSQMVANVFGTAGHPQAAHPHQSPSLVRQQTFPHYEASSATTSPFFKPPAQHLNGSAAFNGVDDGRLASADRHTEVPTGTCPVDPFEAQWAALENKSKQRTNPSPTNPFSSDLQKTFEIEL
In words: co-IP; 293T cells co-expressing Numb4 and MCT1 or MCT4; 500 ug lysate; anti-NUMB, anti-MCT1 or anti-MCT4 antibody on protein A magnetic beads; Western blot. Background: In western blotting, separated proteins are transferred to a membrane and probed.

Test [1] deals with T2, MCT4 in 293T cells expressing ubiquitin and Numb4 (human (endogenous in 293T)) (UniProt O15427).
T2 sequence: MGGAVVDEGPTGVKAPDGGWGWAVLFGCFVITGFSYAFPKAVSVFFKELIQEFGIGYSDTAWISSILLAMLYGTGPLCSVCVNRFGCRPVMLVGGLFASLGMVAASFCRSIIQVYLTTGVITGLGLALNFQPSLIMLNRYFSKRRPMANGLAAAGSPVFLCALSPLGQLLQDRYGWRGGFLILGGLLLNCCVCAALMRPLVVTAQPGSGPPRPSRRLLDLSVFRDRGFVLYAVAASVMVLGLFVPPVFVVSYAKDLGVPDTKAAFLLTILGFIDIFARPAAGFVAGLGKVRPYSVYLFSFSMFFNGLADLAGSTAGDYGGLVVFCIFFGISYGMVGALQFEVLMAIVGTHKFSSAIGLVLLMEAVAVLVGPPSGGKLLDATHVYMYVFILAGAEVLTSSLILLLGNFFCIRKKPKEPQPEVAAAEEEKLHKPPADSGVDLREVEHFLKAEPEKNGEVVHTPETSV
Put plainly: co-IP; 293T cells expressing ubiquitin and Numb4; 500 ug lysate; anti-MCT4 antibody on protein A magnetic beads; Western blot.

Test [2] addresses T3, Monocarboxylate transporter 1 (MCT1, SLC16A1) (UniProt P53985).
T3 sequence: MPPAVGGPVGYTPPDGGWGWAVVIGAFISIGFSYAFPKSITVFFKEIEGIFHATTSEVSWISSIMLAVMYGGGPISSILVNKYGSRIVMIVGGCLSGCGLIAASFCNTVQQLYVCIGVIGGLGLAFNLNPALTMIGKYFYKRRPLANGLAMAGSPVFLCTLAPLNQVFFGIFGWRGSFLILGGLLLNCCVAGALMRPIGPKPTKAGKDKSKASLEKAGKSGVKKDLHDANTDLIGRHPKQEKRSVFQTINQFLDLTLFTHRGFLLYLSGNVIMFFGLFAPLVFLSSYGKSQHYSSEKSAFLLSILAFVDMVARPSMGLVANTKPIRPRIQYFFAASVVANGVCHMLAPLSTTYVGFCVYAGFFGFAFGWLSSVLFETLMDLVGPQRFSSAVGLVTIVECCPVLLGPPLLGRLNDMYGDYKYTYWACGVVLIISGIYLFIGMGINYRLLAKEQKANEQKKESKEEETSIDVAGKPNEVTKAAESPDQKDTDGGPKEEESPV
Put plainly: co-IP; 293T cells co-expressing Numb4 and MCT1 or MCT4; 500 ug lysate; anti-NUMB, anti-MCT1 or anti-MCT4 antibody on protein A magnetic beads; Western blot.

Test [3] concerns the target T4, Monocarboxylate transporter 4 (MCT4, SLC16A3) (UniProt O15427).
T4 sequence: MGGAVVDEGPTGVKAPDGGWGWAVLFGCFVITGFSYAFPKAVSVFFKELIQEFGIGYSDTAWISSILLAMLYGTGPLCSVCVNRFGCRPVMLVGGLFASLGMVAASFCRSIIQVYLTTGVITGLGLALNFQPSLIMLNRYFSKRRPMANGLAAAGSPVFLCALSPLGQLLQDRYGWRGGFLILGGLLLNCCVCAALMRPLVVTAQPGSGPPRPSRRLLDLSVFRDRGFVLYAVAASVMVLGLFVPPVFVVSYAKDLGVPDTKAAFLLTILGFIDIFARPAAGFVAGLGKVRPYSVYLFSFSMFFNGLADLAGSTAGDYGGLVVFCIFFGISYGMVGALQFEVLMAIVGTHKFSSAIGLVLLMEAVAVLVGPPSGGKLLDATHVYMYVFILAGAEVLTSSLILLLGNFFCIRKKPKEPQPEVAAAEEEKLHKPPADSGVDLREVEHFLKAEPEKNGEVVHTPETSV
The test is described as above.

Test [4] has as its target T5, MCT1 in SAS cells (human (endogenous in SAS)) (UniProt P53985).
T5 sequence: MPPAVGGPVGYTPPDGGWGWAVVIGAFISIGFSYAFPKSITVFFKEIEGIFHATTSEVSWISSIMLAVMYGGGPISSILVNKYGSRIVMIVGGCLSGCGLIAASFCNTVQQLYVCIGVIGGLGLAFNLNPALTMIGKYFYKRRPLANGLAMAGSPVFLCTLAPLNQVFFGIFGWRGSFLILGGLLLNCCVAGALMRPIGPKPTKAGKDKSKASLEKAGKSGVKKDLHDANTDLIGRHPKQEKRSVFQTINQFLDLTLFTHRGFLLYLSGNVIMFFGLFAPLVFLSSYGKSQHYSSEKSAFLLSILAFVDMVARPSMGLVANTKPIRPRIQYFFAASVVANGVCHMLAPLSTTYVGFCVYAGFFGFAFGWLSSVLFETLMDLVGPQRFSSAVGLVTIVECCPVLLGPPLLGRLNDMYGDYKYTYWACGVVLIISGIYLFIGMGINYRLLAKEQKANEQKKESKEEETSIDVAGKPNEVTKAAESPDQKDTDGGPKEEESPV
In words: co-IP; SAS cells expressing ubiquitin and Numb4; 500 ug lysate; anti-MCT1 antibody on protein A magnetic beads; Western blot.

Results are given in words; binding and its absence hold for the method and conditions named. In cells and extracts the contact can be indirect. Some entries that bind do so weakly or less than the wild type.

B1: Monocarboxylate transporter 1 (MCT1, SLC16A1) (protein, UniProt P53985 1-500)
chain: MPPAVGGPVGYTPPDGGWGWAVVIGAFISIGFSYAFPKSITVFFKEIEGIFHATTSEVSWISSIMLAVMYGGGPISSILVNKYGSRIVMIVGGCLSGCGLIAASFCNTVQQLYVCIGVIGGLGLAFNLNPALTMIGKYFYKRRPLANGLAMAGSPVFLCTLAPLNQVFFGIFGWRGSFLILGGLLLNCCVAGALMRPIGPKPTKAGKDKSKASLEKAGKSGVKKDLHDANTDLIGRHPKQEKRSVFQTINQFLDLTLFTHRGFLLYLSGNVIMFFGLFAPLVFLSSYGKSQHYSSEKSAFLLSILAFVDMVARPSMGLVANTKPIRPRIQYFFAASVVANGVCHMLAPLSTTYVGFCVYAGFFGFAFGWLSSVLFETLMDLVGPQRFSSAVGLVTIVECCPVLLGPPLLGRLNDMYGDYKYTYWACGVVLIISGIYLFIGMGINYRLLAKEQKANEQKKESKEEETSIDVAGKPNEVTKAAESPDQKDTDGGPKEEESPV
In the case of B1, the binding entry with Numb4 isoform of NUMB is given as “binds”.

B2: Monocarboxylate transporter 4 (MCT4, SLC16A3) (protein, UniProt O15427 1-465)
chain: MGGAVVDEGPTGVKAPDGGWGWAVLFGCFVITGFSYAFPKAVSVFFKELIQEFGIGYSDTAWISSILLAMLYGTGPLCSVCVNRFGCRPVMLVGGLFASLGMVAASFCRSIIQVYLTTGVITGLGLALNFQPSLIMLNRYFSKRRPMANGLAAAGSPVFLCALSPLGQLLQDRYGWRGGFLILGGLLLNCCVCAALMRPLVVTAQPGSGPPRPSRRLLDLSVFRDRGFVLYAVAASVMVLGLFVPPVFVVSYAKDLGVPDTKAAFLLTILGFIDIFARPAAGFVAGLGKVRPYSVYLFSFSMFFNGLADLAGSTAGDYGGLVVFCIFFGISYGMVGALQFEVLMAIVGTHKFSSAIGLVLLMEAVAVLVGPPSGGKLLDATHVYMYVFILAGAEVLTSSLILLLGNFFCIRKKPKEPQPEVAAAEEEKLHKPPADSGVDLREVEHFLKAEPEKNGEVVHTPETSV
In the case of B2, the binding result with Numb4 isoform of NUMB is reported as “binds”.

B3: Numb4 isoform of NUMB (protein, UniProt P49757-4 1-592)
chain: MNKLRQSFRRKKDVYVPEASRPHQWQTDEEGVRTGKCSFPVKYLGHVEVDESRGMHICEDAVKRLKATGKKAVKAVLWVSADGLRVVDEKTKDLIVDQTIEKVSFCAPDRNFDRAFSYICRDGTTRRWICHCFMAVKDTGERLSHAVGCAFAACLERKQKREKECGVTATFDASRTTFTREGSFRVTTATEQAEREEIMKQMQDAKKAETDKIVVGSSVAPGNTAPSPSSPTSPTSDATTSLEMNNPHAIPRRHAPIEQLARQGSFRGFPALSQKMSPFKRQLSLRINELPSTMQRKTDFPIKNAVPEVEGEAESISSLCSQITNAFSTPEDPFSSAPMTKPVTVVAPQSPTFQGTEWGQSSGAASPGLFQAGHRRTPSEADRWLEEVSKSVRAQQPQASAAPLQPVLQPPPPTAISQPASPFQGNAFLTSQPVPVGVVPALQPAFVPAQSYPVANGMPYPAPNVPVVGITPSQMVANVFGTAGHPQAAHPHQSPSLVRQQTFPHYEASSATTSPFFKPPAQHLNGSAAFNGVDDGRLASADRHTEVPTGTCPVDPFEAQWAALENKSKQRTNPSPTNPFSSDLQKTFEIEL
Take B3: the binding result in test [1], in test [2] and in test [3] was “binds” each time.

B4: Numb4 isoform of NUMB (expressed in SAS cells) (protein, UniProt P49757-4 1-592)
chain: MNKLRQSFRRKKDVYVPEASRPHQWQTDEEGVRTGKCSFPVKYLGHVEVDESRGMHICEDAVKRLKATGKKAVKAVLWVSADGLRVVDEKTKDLIVDQTIEKVSFCAPDRNFDRAFSYICRDGTTRRWICHCFMAVKDTGERLSHAVGCAFAACLERKQKREKECGVTATFDASRTTFTREGSFRVTTATEQAEREEIMKQMQDAKKAETDKIVVGSSVAPGNTAPSPSSPTSPTSDATTSLEMNNPHAIPRRHAPIEQLARQGSFRGFPALSQKMSPFKRQLSLRINELPSTMQRKTDFPIKNAVPEVEGEAESISSLCSQITNAFSTPEDPFSSAPMTKPVTVVAPQSPTFQGTEWGQSSGAASPGLFQAGHRRTPSEADRWLEEVSKSVRAQQPQASAAPLQPVLQPPPPTAISQPASPFQGNAFLTSQPVPVGVVPALQPAFVPAQSYPVANGMPYPAPNVPVVGITPSQMVANVFGTAGHPQAAHPHQSPSLVRQQTFPHYEASSATTSPFFKPPAQHLNGSAAFNGVDDGRLASADRHTEVPTGTCPVDPFEAQWAALENKSKQRTNPSPTNPFSSDLQKTFEIEL
Take B4: in test [4], the binding result is “binds”.
